Literature values, collected in patent US20250127752A1, “REDUCED REBOUND EFFECTS IN SUBJECTS TREATED FOR OVERWEIGHT OR OBESITY” (Empros Pharma AB, priority 2021, published 2025).
At least one compound was matched to its structure with a doubt left.

Conditions: after one year, highest dose; placebo group lost 2 kg; cited from earlier work

Compound: CCCCCCCCCCCCCCCC(=O)N[C@@H](CCC(=O)NCCCC[C@H](NC(=O)[C@H](C)NC(=O)[C@H](C)NC(=O)[C@H](CCC(N)=O)NC(=O)CNC(=O)[C@H](CCC(=O)O)NC(=O)[C@H](CC(C)C)NC(=O)[C@H](Cc1ccc(O)cc1)NC(=O)[C@H](CO)NC(=O)[C@H](CO)NC(=O)[C@@H](NC(=O)[C@H](CC(=O)O)NC(=O)[C@H](CO)NC(=O)[C@@H](NC(=O)[C@H](Cc1ccccc1)NC(=O)[C@@H](NC(=O)CNC(=O)[C@H](CCC(=O)O)NC(=O)[C@H](C)NC(=O)[C@@H](N)Cc1cnc[nH]1)[C@@H](C)O)[C@@H](C)O)C(C)C)C(=O)N[C@@H](CCC(=O)O)C(=O)N[C@@H](Cc1ccccc1)C(=O)N[C@H](C(=O)N[C@@H](C)C(=O)N[C@@H](Cc1c[nH]c2ccccc12)C(=O)N[C@@H](CC(C)C)C(=O)N[C@H](C(=O)N[C@@H](CCCNC(=N)N)C(=O)NCC(=O)N[C@@H](CCCNC(=N)N)C(=O)NCC(=O)O)C(C)C)[C@@H](C)CC)C(=O)O [liraglutide]
- Weight lost: 8 kg
